Test results reported in paper PMC10167327.
Results are given in words; binding and its absence hold for the method and conditions named. In cells and extracts the contact can be indirect. Some entries that bind do so weakly or less than the wild type.

Sequences of proteins named here, by UniProt entry; tags and fusion partners are left off. Residues count along the entry.
UniProt P47075, residues 1-294: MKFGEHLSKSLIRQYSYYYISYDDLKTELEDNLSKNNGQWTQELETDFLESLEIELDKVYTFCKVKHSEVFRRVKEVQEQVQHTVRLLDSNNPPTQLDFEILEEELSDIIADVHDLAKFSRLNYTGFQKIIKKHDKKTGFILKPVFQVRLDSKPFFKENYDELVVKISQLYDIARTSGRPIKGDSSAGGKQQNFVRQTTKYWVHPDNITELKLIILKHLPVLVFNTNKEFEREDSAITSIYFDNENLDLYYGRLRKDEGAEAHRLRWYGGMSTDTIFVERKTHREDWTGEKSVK

Experiments:
[1] = target: SPX domain of Vtc4 (aa 1–294) with a Gly6 linker and 3xFLAG (S. cerevisiae) (UniProt P47075); assay: co-IP; as a6, with 10 µM 1,5-IP8 during the incubation with the recombinant Vtc2-SPX domain; only the binder purified
[2] = target: SPX domain of Vtc4 (aa 1–294) with a Gly6 linker and 3xFLAG (S. cerevisiae) (UniProt P47075); assay: co-IP; co-immunoadsorption: Vtc4 SPX(1–294)-Gly6-3xFLAG from yeast extract adsorbed on anti-FLAG Dynabeads, washed, incubated with 0.8 µM purified recombinant Vtc2-SPX domain, 1.5 h, 4 °C, IP buffer (0.5% Tween 20, 1 mM DTT in TGN buffer); without 1,5-IP8; only the binder purified

binding [2]: binds
B1: SPX2 (SPX domain of Vtc2, Vtc2(1–201)) (domain or fragment, UniProt P43585 1-201)
chain: MLFGVKLANEVYPPWKGSYINYEGLKKFLKEDSVKDGSNDKKARWDDSDESKFVEELDKELEKVYGFQLKKYNNLMERLSHLEKQTDTEAAIKALDADAFQRVLEELLSESTELDNFKRLNFTGFAKIVKKHDKLYPKYPSVKSLLEVRLKELPSHSEEYSPLLYRISFLYNILRSNFNTASEPLASASKFSSIVSNDIDM
binding [1]: no binding (condition: with 10 µM 1,5-IP8)
